Experimental findings from publication PMC5370144 are described below.

Protein sequences, listed by entry. Tags and fused reporters are not part of them.
UniProt O55242: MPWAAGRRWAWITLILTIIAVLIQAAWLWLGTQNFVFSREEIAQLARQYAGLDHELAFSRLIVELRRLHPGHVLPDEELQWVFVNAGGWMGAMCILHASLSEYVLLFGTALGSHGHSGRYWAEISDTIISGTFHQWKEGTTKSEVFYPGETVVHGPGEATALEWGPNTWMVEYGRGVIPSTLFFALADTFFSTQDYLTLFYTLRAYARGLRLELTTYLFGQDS

These are yes or no findings as the source states them, for the method shown. In cells and extracts the contact can be indirect. Some binding calls cover weakened binding; strength is not graded here.

Assay [1] has as its target HA-tagged original mouse sigma1 receptor mSIG-1 (mouse) (UniProt O55242). Nature of the assay: co-IP; HEK293 cells transiently co-transfected with mMOR-1/Flag and an HA-tagged Sigmar1 variant; whole cells solubilised in PBS pH 7.4, 3 mM CHAPS; IP with EZview Red Anti-HA affinity gel overnight at 4°C, elution with HA peptide, immunoblot with anti-Flag.
For assay [2] the target is unchanged. Nature of the assay: co-IP; competition co-IP: equal amounts of mSIG-1/HA (1.2 μg) and mMOR-1/Flag (1.2 μg) co-transfected in HEK293 with 0, 1.2, 2.4 or 3.6 μg of an untagged Sigmar1 variant; IP with EZview HA affinity gel, immunoblot with anti-Flag. For orientation: Immunoblotting shows a protein as a band on a membrane.

In the case of “Flag-tagged mouse mu opioid receptor variant mMOR-1 (from UniProt P42866 1-398)”, the binding entry in assay [1] and in assay [2] was “binds” in each case.
